PubChem BioAssay AID1671195 | Yale University | 2021
In all, the deposit lists about 22,000 reagents; this is an unselected part. In the full data, about 1,510 (6.9%) were called active. 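Active includes knockdowns raising or lowering LDL uptake; positive z-scores mean more uptake, negative mean less.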 Reagent sequences are not shown.

Test: 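Regulators of LDL receptor activity judged by labelled LDL uptake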 (primary screen)
Cells: human Huh7 hepatoma cells
Reagents: siRNA pool against human genes, 18 nM
Time to read-out: about 2 to 2.5 days of knockdown, then 8 h LDL uptake
Treatment: DiI-labelled LDL at 30 µg/ml for 8 h, in lipoprotein-deficient serum medium
Read-out: 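Fluorescent LDL signal imaged in cells, scaled to the plate median, robust z-score for each replicate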
Reading the numbers: robust z-score: higher = more LDL uptake after knockdown
Rule for the call: 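a gene counts as active if at least two replicate z-scores exceed ±2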

no.	gene	robust z-score, replicate 1	robust z-score, replicate 2	robust z-score, replicate 3	outcome
1	AATBC	0.417	0.224	-0.000559	inactive
2	PRDM5	-1.22	-1.06	-1.05	inactive
3	LOC440983 (retired record)	-0.111	-0.792	-0.652	inactive
4	LOC440937 (retired record)	-0.134	0.644	0.394	inactive
5	YWHAZ	1.51	0.448	1.84	inactive
6	C4orf36	1.28	0.61	0.413	inactive
7	DHX58	0.0113	-0.331	-0.462	inactive
8	ZNF445	-1.36	-1.29	-0.894	inactive
9	GSTO2	2.63	2.17	3.08	active
10	FDPSP5	-0.861	-0.878	-1.03	inactive
11	PRPSAP2	3	3.37	3.41	active
12	ZPLD1	1.91	1.66	1.79	inactive
13	FAHD1	-1.22	-1.54	-1.37	inactive
14	ZNF136	0.675	0.64	0.446	inactive
15	ZBED2	0.0498	-0.466	-0.236	inactive
16	KPTN	-1.03	-1.84	-1.04	inactive
17	AKT3	1.01	0.215	0.25	inactive
18	ACP7	-1.08	-0.902	-0.945	inactive
19	PGAM1	-0.279	0.0522	-0.397	inactive
20	KCNE1	0.77	0.461	0.85	inactive
21	NEUID	1.25	0.258	0.407	inactive
22	MPI	-0.127	-0.0742	-0.12	inactive
23	COA8	-1.02	-0.219	-0.972	inactive
24	NUP35	0.427	-0.393	-0.18	inactive
25	MEST	-0.601	-0.216	-0.216	inactive
26	S100G	1.14	0.565	0.532	inactive
27	PPDPF	-1.94	-1.57	-1.93	inactive
28	LOC441260 (retired record)	-0.0777	-0.169	-0.37	inactive
